Our source for the binding values is patent US20160039895A1 (published 2016).

By UniProt entry, the sequences of proteins in these tests, tags left out. Where a name states a change or a piece, a line headed by the entry shows the natural chain unless it says otherwise. Residues count along the entry.
UniProt P35968: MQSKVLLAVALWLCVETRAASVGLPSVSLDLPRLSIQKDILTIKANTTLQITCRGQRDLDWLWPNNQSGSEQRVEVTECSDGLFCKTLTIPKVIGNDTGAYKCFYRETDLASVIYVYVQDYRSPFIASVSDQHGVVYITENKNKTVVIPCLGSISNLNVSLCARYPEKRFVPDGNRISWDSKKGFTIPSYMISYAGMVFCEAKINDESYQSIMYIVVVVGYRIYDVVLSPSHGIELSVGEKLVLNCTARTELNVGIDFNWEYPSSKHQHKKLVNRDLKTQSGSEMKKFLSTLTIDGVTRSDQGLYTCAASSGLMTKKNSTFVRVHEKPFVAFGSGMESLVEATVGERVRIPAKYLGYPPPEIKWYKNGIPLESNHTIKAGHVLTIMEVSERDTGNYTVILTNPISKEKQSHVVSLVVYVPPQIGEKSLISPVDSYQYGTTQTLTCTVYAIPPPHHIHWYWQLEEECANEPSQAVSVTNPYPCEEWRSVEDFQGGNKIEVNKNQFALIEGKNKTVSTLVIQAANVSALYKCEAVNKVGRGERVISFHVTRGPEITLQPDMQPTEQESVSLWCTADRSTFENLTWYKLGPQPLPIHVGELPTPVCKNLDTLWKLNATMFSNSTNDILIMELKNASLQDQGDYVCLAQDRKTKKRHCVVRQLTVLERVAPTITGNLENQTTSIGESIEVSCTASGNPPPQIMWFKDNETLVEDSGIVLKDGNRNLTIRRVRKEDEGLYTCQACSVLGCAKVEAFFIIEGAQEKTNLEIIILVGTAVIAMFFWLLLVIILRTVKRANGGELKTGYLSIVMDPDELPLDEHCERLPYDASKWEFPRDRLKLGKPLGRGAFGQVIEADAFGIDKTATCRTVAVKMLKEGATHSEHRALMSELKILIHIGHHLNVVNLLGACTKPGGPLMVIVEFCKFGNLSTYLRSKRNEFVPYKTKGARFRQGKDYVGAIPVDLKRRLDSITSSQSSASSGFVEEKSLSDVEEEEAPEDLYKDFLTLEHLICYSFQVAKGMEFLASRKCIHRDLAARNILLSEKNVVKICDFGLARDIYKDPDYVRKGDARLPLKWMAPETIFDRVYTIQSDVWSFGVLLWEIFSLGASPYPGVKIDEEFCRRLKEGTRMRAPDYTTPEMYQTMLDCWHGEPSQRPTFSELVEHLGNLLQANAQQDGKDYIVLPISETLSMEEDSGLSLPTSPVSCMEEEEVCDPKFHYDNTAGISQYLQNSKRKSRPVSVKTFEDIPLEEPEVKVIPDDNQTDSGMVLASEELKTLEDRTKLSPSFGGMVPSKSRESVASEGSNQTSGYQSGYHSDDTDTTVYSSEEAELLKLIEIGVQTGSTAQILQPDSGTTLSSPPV
human VEGFR2 on cells (PAE/KDR cells, HUVEC): residues 20-1356 of P35968
recombinant human VEGFR2 extracellular domain: residues 20-764 of P35968

No constants are given. Whether binding was seen depends on the method and setting. Some results given as binding are weak or reduced against the parent protein; the word gives no strength.

Experiment [1] deals with recombinant human VEGFR2 extracellular domain (human) (UniProt P35968). In words: yeast surface display, individual clones binding VEGFR2.
For experiment [2] the target is unchanged. In words: SPR (BIAcore), VEGFR2 immobilized. For orientation: In SPR one partner is held on a chip, and binding of the other changes the refractive index at the surface.
For experiment [3], the target named is human VEGFR2 on cells (PAE/KDR cells, HUVEC) (human) (UniProt P35968). In words: flow cytometry titration on PAE/KDR cells.
Experiment [4] has as its target porcine αvβ3 integrin on PAE cells (porcine). Kind of experiment: flow cytometry titration on PAE cells.

B1: scVEGF-mM (designed binder)
chain: EVVKAMDVYRRSYCHPVETSVDILQEYPDEIEYIFKPSCVPLMRCGGCCNDAGLECVPTEESNTTMQIMRIKPYRGQHIGEMSFLQHNKCECRPKKDGSTSGSGKSSEGKGEVVKFMDVYQRSYCHPIETLVDIFQEYPDEIEYAFKPSCVSLMRCGGCCNNEGLECVPTEESNITVQIMGAKPHQGQHIGEMSFLQHNKCECRPKKD
notes: Soluble protein with C-terminal hexahistidine tag, with or without N-terminal FLAG tag (tags not included in the parts); also called scVEGFmut-M
For the molecule B1, the binding result in experiment [1] and in experiment [2] was “binds” in each case.

B2: scVEGF-mA (designed binder)
chain: EVAKAMDVYQKSYCHPIETLVDILQEYPDEIGYIFKPSCVPLMRCGGCCNDAGLECVPTEESNITMQIMRIKPYQGQHIGEMSFLQHNKCECRPKKDGSTSGSGKSSEGKGEVVKFMDVYQRSYCHPIETLVDIFQEYPDKIEYAFKPSCVPLMRCGGCCNNEGLECVPTEESNITMQITRAKPHQGQHIGEMSFLQHNKCECRPKKD
notes: Soluble protein from P. pastoris with C-terminal hexahistidine tag, with or without N-terminal FLAG tag (tags not included in the parts); also called scVEGFmut-A
Regarding B2, the binding entry in experiment [1], in experiment [3] and in experiment [2] was “binds” each time.

B3: scVEGF-mJ (designed binder)
chain: EIVKARDVYQRSYCHPIETLVDILQEYPDEIEYIFKPSCVPLMRCGGCCNDAGLECVPTEESNITMQIMRIKPYQGHHIGEMSFLQHNKCECRPKKDGSTSGSGKSSEGKGEVVKFMDVYQRSYCHPIETLVDIFQEYPDEIEYAFKPSCVPLMRCGGCCNNEGLECVPTEESNITMQIMRAKPHQGQHTGEMSFLQHNKCECRPKKD
notes: Soluble protein with C-terminal hexahistidine tag, with or without N-terminal FLAG tag (tags not included in the parts); also called scVEGFmut-J
Consider B3, for which the binding result in experiment [1], in experiment [3] and in experiment [2] was “binds” throughout.

B4: scVEGF-mE (designed binder)
chain: EVVKAMDVYQRSYCHPIETLVDILQEYPDEIGYIFKPSCVPLMRCGGCCNGAGLECVPTEESNITMQIMRIKPHRGQHIGEMSFLQHNKCECRPKKDGSTSGSGKSSEGKGEVVRFMDVYQRSYCHPIETLVDIFQEYPNEIEYAFKPSCVPLMRCGGCCNNEGLECVPTEESNITMQIMRAKPHQGQHIGEMSFLQHNKCECRPKKD
notes: Soluble protein with C-terminal hexahistidine tag, with or without N-terminal FLAG tag (tags not included in the parts); also called scVEGFmut-E
As for B4, the binding result in experiment [1], in experiment [3] and in experiment [2] was “binds” throughout.

B5: scVEGFrgd-7B-A (designed binder)
chain: EVVKAMDVYQRSYCHPIETLVDILQEYPDEIEYIFKPSCVPLMRCGGCCNDAGLECVPTEESNITMQVMRIKPYRGQHIGEMSFLQHNKCECRPKKDGSTSGSGKSSEGKGEVVKFMDVYQRSYCHPIETLVDIFQEYPDEIEYAFKPSCVPLMRCGGCCNNEGLECVPTEESNITMQIMRPHDRGDAGVHIGEMSFLQHNKCECRPRKD
On to B5, for which the binding entry in experiment [1] is “binds”.

B6: scVEGFrgd-7B-C (designed binder)
chain: EVVKAMDVYQGSYCHPIETLVDILQEYPDEIEYIFKPSCVPLMRCGGCCNNAGLECVPTEESNITMQIMRIKPYQGQHIGEMSFLQHNKCECRPKKGGSTSGSGKSSEGKGEVVKFMDVYQRSYCHPIETLVDIFQEYPDEIEYAFKPSCVPLMRCGGCCNHEGLECVPTEESNITMRIMRPHDRGDAGVHIGEMSFLQHNKCECRPKRD
Take B6: in experiment [1], the binding result was “binds”.

B7: scVEGFrgd-7B-K (designed binder)
chain: EVVKAMDVYQRSYCHPIETLVDILQEYPDEIEYIFKPSCVPLMRCGGCCNDAGLECVPTEESNITMQIMRIKPYQGQHIGEMSFLQHNKCECRPKKDGSTSGSGKSSEGKGEVVRFMDVYQRSYCHPIETLVDIFQEYPDEIEYAFKPSCVPLMRCGGCCNHEGLECVPTEESNITMQIMRPHDRGDAGVHIGEMSFLQHNKCECRPKED
Take B7: the binding result in experiment [1] was “binds”.

B8: scVEGFrgd-7H (designed binder)
chain: EVVKAMDVYQRSYCHPIETLVDIFQEYPDEIEYIFKPSCVPLMRCGGCCNDAGLECVPTEESNITMQIMRIKPHQGQHIGEMSFLQHNKCECRPKKDGSTSGSGKSSEGKGEVVKFMDVYQRSYCHPIETLVDIFQEYPDEIEYAFKPSCVPLMRCGGCCNDEGLECVPTEESNITMQIMRPGGRGDSAYHIGEMSFLQHNKCECRPKKDTR
notes: Soluble protein from P. pastoris with C-terminal hexahistidine tag, with or without N-terminal FLAG tag; also called scVEGF-7H
Regarding B8, in experiment [4], the binding entry is reported as “binds”.

B9: scVEGFrgd-7P (designed binder)
chain: EVVKAMDVYQRSYCHPIETLVDIFQEYPDEIEYIFKPSCVPLMRCGGCCNDAGLECVPTEESNITMQIMRIKPHQGQHIGEMSFLQHNKCECRPKKDGSTSGSGKSSEGKGEVVKFMDVYQRSYCHPIETLVDIFQEYPDEIEYAFKPSCVPLMRCGGCCNDEGLECVPTEESNITMQIMRPASRGDSPPHIGEMSFLQHNKCECRPKKDTR
notes: Soluble protein from P. pastoris with C-terminal hexahistidine tag, with or without N-terminal FLAG tag; also called scVEGF-7P
Regarding B9, the binding entry in experiment [4] is given as “binds”.

B10: scVEGFrgd-7I (designed binder)
chain: EVVKAMDVYQRSYCHPIETLVDIFQEYPDEIEYIFKPSCVPLMRCGGCCNDAGLECVPTEESNITMQIMRIKPHQGQHIGEMSFLQHNKCECRPKKDGSTSGSGKSSEGKGEVVKFMDVYQRSYCHPIETLVDIFQEYPDEIEYAFKPSCVPLMRCGGCCNDEGLECVPTEESNITMQIMRPSVRRGDSPASHIGEMSFLQHNKCECRPKKDTR
notes: Soluble protein from P. pastoris with C-terminal hexahistidine tag, with or without N-terminal FLAG tag; also called scVEGF-7I
As for B10, the binding entry in experiment [4] is reported as “binds”.
